PubChem BioAssay AID1259308 – NCATS – 2017
Purpose: 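Candidate targets for better recombinant protein yield in mammalian cells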 (primary screen). Cell system: human HEK293 embryonic kidney cells stably expressing firefly luciferase (HEK-CMV-Luc2-Hygro). Reagents: single siRNA against human genes, 0.8 pmol siRNA per well. Timing: 72 h. Detection: 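Reporter luminescence and viable-cell signal on separate replicate plates, given as percent of non-targeting control and median/MAD z-scores, plus per-cell luciferase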. Scale: total luciferase, z-score: higher = more reporter protein produced. Hit rule: 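Active when the median/MAD z-score for overall luciferase is greater than 3; a gene was taken forward for validation with new siRNAs if at least two of its three siRNAs passed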. Calls: active = raised luciferase; inactive = no rise.
Here is one part, drawn at random, of about 59,000 reagents tested. About 1,510 of them (2.6%) were called active. 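Calls use total luciferase alone and ignore viability, so some active siRNAs may act by altering cell number.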 Reagents against one gene are numbered here. Not all columns of the deposit are shown. No sequences are given here.

Depletion of PPP1R16B #1 gave: total luciferase, z-score 0.259; inactive. Silencing of PPP1R16B #2 resulted in: total luciferase, z-score 2.06; inactive. With knock-down of PPP1R16B #3, the screen gave total luciferase, z-score 3.03; active. For TM6SF2 #1, the entry reads total luciferase, z-score -0.38; inactive. With knock-down of TM6SF2 #2, the record shows total luciferase, z-score 0.938; inactive. After knock-down of TM6SF2 #3, the screen gave total luciferase, z-score -0.486; inactive.

NOL7 #1 showed total luciferase, z-score -1.31; inactive. After knock-down of NOL7 #2, the screen gave total luciferase, z-score 0.185; inactive. NOL7 #3 gave total luciferase, z-score -1.62; inactive. Against RFNG #1, the entry reads total luciferase, z-score 0.0996; inactive. RFNG #2 gave total luciferase, z-score -0.654; inactive. Against RFNG #3 the deposit lists total luciferase, z-score -0.511; inactive.

After knock-down of MIEF2 #1, the record shows total luciferase, z-score -0.131; inactive. MIEF2 #2 showed total luciferase, z-score 1.1; inactive. MIEF2 #3 gave total luciferase, z-score -0.0221; inactive. For BMPR2 #1, the values are total luciferase, z-score 0.115; inactive. With knock-down of BMPR2 #2 the results were total luciferase, z-score -0.522; inactive. Silencing of BMPR2 #3 resulted in: total luciferase, z-score 1.21; inactive.

LINC02458 #1 showed total luciferase, z-score -0.146; inactive. Against LINC02458 #2 the deposit lists total luciferase, z-score -1.19; inactive. Silencing of LINC02458 #3 came out at: total luciferase, z-score -1.56; inactive. Knock-down of LOC729973 #1 resulted in: total luciferase, z-score 1.82; inactive. LOC729973 #2 showed total luciferase, z-score 0.182; inactive. For LOC729973 #3, the values are total luciferase, z-score -0.321; inactive.

With knock-down of PLCE1 #1, the screen gave total luciferase, z-score -0.335; inactive. For PLCE1 #2, the values are total luciferase, z-score -1.29; inactive. For PLCE1 #3 the deposit lists total luciferase, z-score 1.12; inactive. Knock-down of UBB #1 resulted in: total luciferase, z-score 3.08; active. After knock-down of UBB #2, the record shows total luciferase, z-score 0.933; inactive. UBB #3 scored total luciferase, z-score 1.14; inactive.

TMCO6 #1 showed total luciferase, z-score 1.09; inactive. Against TMCO6 #2, the values are total luciferase, z-score -0.187; inactive. With knock-down of TMCO6 #3, the record shows total luciferase, z-score 1.99; inactive. NET1 #1 gave total luciferase, z-score -0.251; inactive. Depletion of NET1 #2 gave: total luciferase, z-score 0.562; inactive. With knock-down of NET1 #3, the screen gave total luciferase, z-score 0.388; inactive.

Against RSL24D1P11 #1, the entry reads total luciferase, z-score -2.16; inactive. After knock-down of RSL24D1P11 #2, the record shows total luciferase, z-score -1.54; inactive. RSL24D1P11 #3 scored total luciferase, z-score -0.469; inactive. Knock-down of ELAVL4 #1 gave: total luciferase, z-score 0.0938; inactive. For ELAVL4 #2 the deposit lists total luciferase, z-score -0.24; inactive. For ELAVL4 #3, the entry reads total luciferase, z-score -0.271; inactive.
